The record followed here is paper PMC8930771, “Structural basis of phosphatidylinositol 3-kinase C2α function” (Nature Structural & Molecular Biology, 2022).

The target of assay [1] is TACC3 (endogenous) (human (endogenous in HEK293T)) (UniProt Q9Y6A5). As to the kind of experiment: co-IP; metaphase-arrested HEK293T cells expressing eGFP-PI3KC2α WT or mutants; endogenous TACC3 immunoprecipitated with anti-TACC3 antibodies, bound proteins detected with anti-GFP antibodies.
Assay [2] has as its target T1, GST-PX (PI3KC2α amino acids 1409–1539) (mouse) (UniProt Q61194).
T1 sequence: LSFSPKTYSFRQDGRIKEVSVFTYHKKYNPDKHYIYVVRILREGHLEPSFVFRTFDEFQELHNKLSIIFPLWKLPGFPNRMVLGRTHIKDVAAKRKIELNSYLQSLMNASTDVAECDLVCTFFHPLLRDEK
As to the kind of experiment: pull-down; 10 μg immobilized GST fusion protein as bait, 200 μg PI3KC2α^ΔN+ΔPX−C2 WT or RBD mutant in 500 μl binding buffer (20 mM Tris, pH 7.5, 100 mM NaCl), 1 h at 4 °C, three washes; SDS-PAGE and Coomassie blue staining, quantified with ImageJ; both purified.

These are yes or no findings as the source states them, for the method shown. For some assays here: Binding seen in cells or lysates may run through a third protein. Some entries that bind do so weakly or less than the wild type. For some assays here: Tags and fused reporters may be left off the sequences shown.

Turning to “eGFP-PI3KC2α WT (from UniProt O00443 1-1686) (enzyme)”, the binding entry in assay [1] was “binds”.

B1: PI3KC2α^ΔN+ΔPX−C2 WT (mouse PI3KC2α amino acids 377–1,400) (domain or fragment, UniProt Q61194 377-1400)
chain: VQNDEVAAFCQSIMKLKTKFPYTDHCTNPGYLLSPVTVQRNMCGENASVKVSIEIEGLQLPVTFTCDVSSTVEIIIMQALCWVHDDLNQVDVGSYILKVCGQEEVLQNNHCLGSHEHIQNCRKWDTEIKLQLLTLSAMCQNLARTAEDDEAPVDLNKYLYQIEKPYKEVMTRHPVEELLDSYHYQVELALQTENQHRAVDQVIKAVRKICSALDGVETPSVTEAVKKLKRAVNLPRNKSADVTSLSGSDTRKNSTKGSLNPENPVQVSMDHLTTAIYDLLRLHANSSRCSTACPRGSRNIKEAWTATEQLQFTVYAAHGISSNWVSNYEKYYLICSLSHNGKDLFKPIQSKKVGTYKNFFYLIKWDELIIFPIQISQLPLESVLHLTLFGVLNQSSGSSPDSNKQRKGPEALGKVSLTLFDFKRFLTCGTKLLYLWTSSHTNSIPGAIPKKSYVMERIVLQVDFPSPAFDIIYTSPQIDRNIIQQDKLETLESDIKGKLLDIIHRDSSFGLSKEDKVFLWENRYYCLKHPNCLPKILASAPNWKWANLAKTYSLLHQWPPLCPLAALELLDAKFADQEVRSLAVSWMEAISDDELADLLPQFVQALKYEIYLNSSLVRFLLSRALGNIQIAHSLYWLLKDALHDTHFGSRYEHVLGALLSVGGKGLREELSKQMKLVQLLGGVAEKVRQASGSTRQVVLQKSMERVQSFFLRNKCRLPLKPSLVAKELNIKSCSFFSSNAMPLKVTMVNADPLGEEINVMFKVGEDLRQDMLALQMIKIMDKIWLKEGLDLRMVIFRCLSTGRDRGMVELVPASDTLRKIQVEYGVTGSFKDKPLAEWLRKYNPSEEEYEKASENFIYSCAGCCVATYVLGICDRHNDNIMLRSTGHMFHIDFGKFLGHAQMFGSFKRDRAPFVLTSDMAYVINGGEKPTIRFQLFVDLCCQAYNLIRKQTNLFLNLLSLMIPSGLPELTSIQDLKYVRDALQPQTTDAEATIFFTRLIESSLGSIATKFNFFIHNLAQLRFSG
In the case of B1, the binding result in assay [2] was “no binding (tested: 200 μg of PI3KC2α^ΔN+ΔPX−C2 in 500 μl)”.
